# From PubChem BioAssay AID1347075 (National Center for Advancing Translational Sciences (NCATS), 2019)
# The campaign covered roughly 400,000 compounds. About 5,500 (1.4%) were called active. Inconclusive results, whose numbers are uncertain, are shown with a selection of clear calls. Calls follow the shape of the dose curve; as a rule, active = well fitted cell-killing curve with a large enough effect; inconclusive = small, poorly fitted or top-dose-only effect, or effect the other way; inactive = flat fitted curve, though single readings scatter. A potency beside an inconclusive call is a rough fit, not a confirmed value.
# Assay: qHTS assay for MDR1-selective chemotherapeutics: Primary screen using the parental adenocarcinoma cell KB-3-1; also: nearly all actives have a fitted effect of over 60% in size
# Conditions: KB-3-1 viability, CellTiter-Glo ATP luminescence, 72 h; activity change, negative = cytotoxic: at 46.1 µM (top of the series)
# Procedure, shortened: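 Using CellTiter-Glo luminescence, growth of non-resistant KB-3-1 adenocarcinoma cells is assessed 72 h after pin-tool compound addition at 37 °C. Normalized responses across the concentration series yield fitted curves.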
# % is scaled to controls: 0 for no effect and ±100 for the full control effect; potency is read from the fitted curve at half-maximal effect.
Compound,Potency,"activity change, negative = cytotoxic"
O=C(CSC1=NC2(CCCCC2)N=C1c1ccccc1)Nc1ccc2c(c1)OCCO2,inactive,–
O=C(NCCCN1CCCC1=O)c1ccc2c(=O)n(Cc3ccco3)c(=S)[nH]c2c1,"inconclusive: 29.1 µM [cytotoxic, single point]",–
Nc1ccc(C(=O)N2CCN(S(=O)(=O)c3ccc4c(c3)OCCCO4)CC2)cc1[N+](=O)[O-],"inconclusive: 16.4 µM [cytotoxic, single point]",–
Nc1nc(-c2ccccc2)c(N=Nc2cccc3ccccc23)s1,"inconclusive: 29.1 µM [cytotoxic, single point]",–
O=c1c2ccccc2nc(COc2ccccc2)n1/N=C/c1ccc(O)c(O)c1,"inconclusive: 29.1 µM [cytotoxic, single point]",–
COc1ccc(CCNC(=O)COc2ccccc2[N+](=O)[O-])cc1OC,"inconclusive: 20.6 µM [rising, partial curve, poor fit]",–
C=CCn1c(C)cc(C(=O)Cn2c(C(C)O)nc3ccccc32)c1C (stereo unspecified),"inconclusive: 16.4 µM [cytotoxic, single point]",–
Cc1cccc2sc(NNC(=O)c3ccc(S(=O)(=O)N4CC(C)CC(C)C4)cc3)nc12 (stereo unspecified),"inconclusive: 29.1 µM [cytotoxic, single point]",–
Cn1c(SCc2ccc(Cl)cc2)nc(C(F)(F)F)cc1=O,"inconclusive: 20.6 µM [cytotoxic, single point]",–
COc1ccccc1C(=O)Nc1ccnn1C1CCN(Cc2cnn(C)c2C)CC1,inactive,–
COc1ccccc1CCC(=O)Nc1ccc2c(c1)c(=O)n(C)n2Cc1cccc(C(F)(F)F)c1,"inconclusive: 29.1 µM [cytotoxic, single point]",–
Cc1ccc2nc(-c3ccc(NC(=O)CNC4CC4)cc3)sc2c1,inactive,–
COc1ccc(N2CCN(CC(=O)Nc3ccccc3C(=O)NC(C)c3ccccc3)CC2)cc1 (stereo unspecified),inactive,–
CCOc1ccc(-c2cn3ccccc3n2)cc1,"inconclusive: 4.11 µM [cytotoxic, full curve]",–
CC(=O)c1c(C)[nH]c(C(=O)Nc2ccc(Cl)cc2)c1C,inactive,–
CC1=CC(C)(C)NC(=S)N1c1ccc(C)c(C)c1,"inconclusive: 29.1 µM [cytotoxic, single point]",–
CC(C)Sc1oc(-c2cccs2)nc1S(=O)(=O)c1ccc(Cl)cc1,inactive,–
CCCCOc1ccc(NC2=NC3(CCCC3)N=C(N)N2)cc1,active: 7.31 µM,–
COC(=O)c1cc(=O)n(Cc2cccs2)c(=Nc2ccccc2)s1,inactive,–
CCOC(=O)C1CCN(S(=O)(=O)c2ccc(C(C)=O)cc2)CC1,inactive,–
CC1CCN(S(=O)(=O)c2ccc(NC(=O)CN3CCCC3)cc2)CC1,inactive,–
Cc1cccc(C(O)(C(=O)NNc2ccc3ccccc3n2)c2cccc(C)c2)c1,"inconclusive: 20.6 µM [cytotoxic, single point]",–
COc1cc(NC(=O)c2cc(-c3cccs3)on2)cc(OC)c1OC,"inconclusive: 18.4 µM [cytotoxic, single point]",–
COc1cc(CC(=O)Nc2nc(-c3ccc(F)c(F)c3)cs2)cc(OC)c1OC,"inconclusive: 14.6 µM [cytotoxic, partial curve]",–

# Entries of single compounds as entered above. Values in the order: Potency	activity change, negative = cytotoxic
# COc1ccccc1CCC(=O)Nc1ccc2c(c1)c(=O)n(C)n2Cc1cccc(C(F)(F)F)c1 reads inconclusive: 29.1 µM [cytotoxic, single point]	–
# CC(=O)c1c(C)[nH]c(C(=O)Nc2ccc(Cl)cc2)c1C reads inactive	–
# COC(=O)c1cc(=O)n(Cc2cccs2)c(=Nc2ccccc2)s1 reads inactive	–

# Later entries:

Compound,Potency,"activity change, negative = cytotoxic"
CC(Sc1nn(-c2ccc(F)cc2)c(=S)s1)C(=O)c1c(N)n(C)c(=O)n(C)c1=O (stereo unspecified),"inconclusive: 20.6 µM [cytotoxic, single point]",–
CN(CC(=O)Nc1cccc(F)c1)CC(=O)Nc1cccc(S(=O)(=O)N2CCCCCC2)c1,"inconclusive: 18.4 µM [cytotoxic, single point]",–
Cc1noc(C)c1CN(C(=S)NC1CC2CCC1C2)c1ccccc1 (stereo unspecified),inactive,–
CC1(C(=O)N/N=C/c2ccc([N+](=O)[O-])o2)CC1(Br)Br (stereo unspecified),"inconclusive: 18.4 µM [rising, partial curve]",–
Cc1ccc(-c2cc3ccccc3nc2N2CCOCC2)cc1,"inconclusive: 29.1 µM [cytotoxic, single point]",–
Cc1cccc(OCCCC(=O)Nc2nc3ccccc3[nH]2)c1,"inconclusive: 20.6 µM [cytotoxic, single point]",–
COc1cc(C(CC(=O)NCc2ccc(F)cc2)N2Cc3ccccc3C2=O)cc(OC)c1OC (stereo unspecified),"inconclusive: 1.46 µM [rising, full curve, poor fit]",–
CCCCN(C)c1nc2c(S(=O)(=O)c3ccc(CC)cc3)nnn2c2ccc(Cl)cc12,inactive,–
CN(C)C(=S)Nc1ccc(Br)cc1Cl,"inconclusive: 32.6 µM [rising, single point]",–
CCCCc1n[nH]c2c1/C(=N/O)CC(c1ccccc1)C2 (stereo unspecified),"inconclusive: 25.9 µM [cytotoxic, single point]",–
COc1ccc(C(=O)N=C2SC3CS(=O)(=O)CC3N2c2ccc(N(C)C)cc2)cc1OC (stereo unspecified),inactive,–
O=C(Nc1ccc(S(=O)(=O)N2CCOCC2)cc1)c1ccc(Cl)s1,"inconclusive: 29.1 µM [rising, single point]",–
N#C[C@]1(S(=O)(=O)c2ccccc2)C[C@@H]2ON=C(c3cccc(Br)c3)[C@@H]2C1,"inconclusive: 23.1 µM [cytotoxic, single point]",–
COc1ccc(C2CC(=O)c3cc(-c4nc(-c5cccc(Cl)c5)cs4)c(=O)[nH]c3C2)cc1OC (stereo unspecified),inactive,–
O=C(c1ccc2ncsc2c1)N1CCN(c2ccccc2Cl)CC1,inactive,–
Cc1nc(NC(=O)c2ccccc2)sc1Cc1ccc2c(c1)OCO2,"inconclusive: 29.1 µM [cytotoxic, single point]",–
CCOC(=O)c1ccc(NC(=O)c2c(-c3c(F)cccc3Cl)noc2C)cc1,–,inconclusive: 3.89%
CCc1n[nH]c(=S)n1/N=C/c1ccc(N(CC)CC)cc1,inactive,–
COc1ccc(C(=O)NNC(=O)C23CC4CC(CC(C4)C2)C3)cc1OC,"inconclusive: 11.6 µM [rising, partial curve, poor fit]",–
c1ccc2nc3c(nc2c1)[nH]c1ccccc13,inactive,–
Cc1nc2cc(C(=O)N3c4ccccc4CC3C)ccc2s1 (stereo unspecified),active: 20.6 µM,–
Cc1cc(=O)[nH]c(SCCOc2ccc3c(c2)CCC3)n1,inactive,–
CC1CCN(S(=O)(=O)c2cn(CC(=O)Nc3cccc(C(F)(F)F)c3)c(=O)c3ccccc23)CC1,"inconclusive: 29.1 µM [cytotoxic, single point]",–
Cc1ccccc1-c1nc(CN2CCC(C(=O)NCCC3=CCCCC3)CC2)c(C)o1,"inconclusive: 35.5 µM [cytotoxic, single point]",–

# 2 of these compounds in another layout.
Compound | Potency | activity change, negative = cytotoxic
Cc1noc(C)c1CN(C(=S)NC1CC2CCC1C2)c1ccccc1 (stereo unspecified) | inactive | –
CC1CCN(S(=O)(=O)c2cn(CC(=O)Nc3cccc(C(F)(F)F)c3)c(=O)c3ccccc23)CC1 | inconclusive: 29.1 µM [cytotoxic, single point] | –

# (further entries)

Compound,Potency,"activity change, negative = cytotoxic"
COc1cc([N+](=O)[O-])cc(/C=N/NC(=O)c2cccnc2)c1O,"inconclusive: 29.1 µM [cytotoxic, single point]",–
O=C(c1ccccc1)N1CCN(c2ccc(NCc3ccc4c(c3)OCO4)cc2)CC1,"inconclusive: 25.9 µM [cytotoxic, single point]",–
O=C(NCC(=O)N(c1ccc(F)cc1)C(C(=O)NCC1CCCO1)c1ccccc1)c1ccco1 (stereo unspecified),inactive,–
Cn1c(=O)c2c(nc(NCCO)n2CCc2ccccc2)n(C)c1=O,active: 20.6 µM,–
S=c1[nH]nc(-c2cccc(Cl)c2)n1/N=C/c1ccc(-c2ccccc2Br)o1,"inconclusive: 29.1 µM [cytotoxic, single point]",–
O=C(Nc1ccc(F)cc1)Nc1ccc(N2CCCC2)c(S(=O)(=O)Nc2ccccc2Cl)c1,active: 20.6 µM,–
COC(=O)C1CCCN1C(=O)C1CCCN1C(=O)CNC(=O)OCc1ccccc1 (stereo unspecified),inactive,–
O=[N+]([O-])c1ccc(N2CCNCC2)cc1Sc1nc2ccccc2[nH]1,"inconclusive: 10.3 µM [cytotoxic, partial curve]",–
O=C(CC(NC(=O)c1ccccc1)c1ccccc1)OCc1nc(-c2cccc(Cl)c2)no1 (stereo unspecified),"inconclusive: 14.6 µM [rising, partial curve, poor fit]",–
Cc1ccc(C(=O)/C=C/C(=O)c2ccc(C)cc2)cc1,inactive,–
COc1ccc(-c2ccc(-c3noc(-c4ccco4)n3)c(OC)n2)cc1,"inconclusive: 20.6 µM [cytotoxic, single point]",–
N#Cc1ccccc1S(=O)(=O)N1CCN(C(=O)Cc2n[nH]c(=O)c3ccccc23)CC1,–,inconclusive: -16.6%
Cc1onc(-c2ccccc2)c1C(=O)N1CCN(c2ccccc2)CC1,inactive,–
CCCN1CCN(CCNC(=O)Nc2ccc(OC)cc2OC)CC1,inactive,–
Cc1cc(C)cc(N2C(=O)C=CC2=O)c1,"inconclusive: 29.1 µM [cytotoxic, single point]",–
CCCCn1c(N)c(N(CC(C)C)C(=O)CCCn2c(=O)oc3ccccc32)c(=O)[nH]c1=O,inactive,–
COc1cc(-c2nc(S(=O)(=O)c3ccc(Cl)cc3)c(N(C)C)o2)cc(OC)c1OC,"inconclusive: 20.6 µM [cytotoxic, partial curve, poor fit]",–
CCc1ccccc1NC(=O)c1ccc(CN2CCC(Cc3ccccc3)CC2)cc1,"inconclusive: 29.1 µM [cytotoxic, single point]",–
Cc1cc(NC(=O)c2cccc3c2C(=O)N(C2CCCCC2)C3)ccc1Br,inactive,–
COc1ccccc1-c1ccc2c(c1)C(C)(Cc1cc(Cl)ccc1C(F)(F)F)C(=O)N2 (stereo unspecified),"inconclusive: 29.1 µM [cytotoxic, single point]",–
O=C(Nc1c[nH]c(=O)[nH]c1=O)c1ccccc1Br,"inconclusive: 23.1 µM [cytotoxic, single point]",–
COc1ccccc1N(CC(=O)NCCSCc1ccccc1)S(=O)(=O)c1ccc(C)cc1,"inconclusive: 29.1 µM [cytotoxic, single point]",–
COCCNC(=O)Cn1nc(N2CCN(c3ccccc3OC)CC2)ccc1=O,inactive,–
